Patent US8236540B2, “Isolated luciferases and the use thereof” (Bayer Intellectual Property GmbH, priority 2000, dated 2012)
Values joined by “and” are separate entries in the source; they are usually repeats but may differ in a detail not shown here. Identical values can stand only once. “Also recorded” adds a separate entry of the source.

B1: LuAL: coelenterazine-dependent secreted luciferase from Metridia longa, amino acid sequence SEQ ID NO: 2 (protein, listed as Metridia longa)
chain: MDMRVIFALVFSSLVQAKSTEFDPNINIVGLEGKFGITNLETDLFTIWETMDVIKSDITDTDRVSNFVATETDANRGKMPGKKLPLAVIMEMEANAFKAGCTRGCLICLSKIKCTAKMKVYIPGRCHDYGGDKKTGQAGIVGAIVDIPEISGFKEMAPMEQFIAQVDLCATCTTGCLKGLANVKCSELLKKWLPGRCASFADKIQKEVHNIKGMAGDR
B2: Lu164: coelenterazine-dependent secreted luciferase from Metridia longa, amino acid sequence SEQ ID NO: 4 (protein, listed as Metridia longa)
chain: MDIKVVFTLVFSALVQAKSTEFDPNIDIVGLEGKFGITNLETDLFTIWETMEVMIKADIADTDRASNFVATETDANRGKMPGKKLPLAVIMEMEANAFKAGCTRGCLICLSKIKCTAKMKVYIPGRCHDYGGDKKTGQAGIVGAIVDIPEISGFKEMAPMEQFIAQVDRCASCTTGCLKGLANVKCSELLKKWLPDRCASFADKIQKEVHNIKGMAGDR
B3: Lu22: coelenterazine-dependent secreted luciferase from Metridia longa, amino acid sequence SEQ ID NO: 6 (protein, listed as Metridia longa)
chain: MGVKLIFAVVCVAVAQAATIQENFEDIDLVAIGGSFASDVDANRGGHGGHPGKKMPKEVLMEMEANAKRAGCHRGCLVCLSHIKCTAQMQKFIPGRCHSYAGDKDSAQGGIAGGAIVDIPEIAGFKEMKPMEQFIAQVDLCEDCTTGCLKGLANVHCSDLLKKWLPSRCKTFASKIQSQVDTIKGLAGDR

Key:
[1] = system: CHO cells; test: Secretion of the luciferases from CHO cells (luciferase activity in the medium over time); assay type: cell-based; conditions: activity in medium 0 h to 5 h
[2] = Dependence of the luciferase activity on the temperature (CHO cell supernatants); assay type: biochemical; conditions: CHO cell supernatant, measured between 0 and 47° C., 9.5 kV for 30 seconds
[3] = Emission spectra of the luciferases following bacterial expression; assay type: biochemical, E. coli BL21(DE3); conditions: bacterial lysate 100 μl + 50 μl coelenterazine (10^-4 M)
[4] = system: bacterial cells; test: Secretion of the luciferases in connection with bacterial expression; assay type: cell-based

Molecule	secretion on expression in eukaryotic (CHO) cells [1]	temperature optimum for the luciferase activity [2]	wavelength of maximum emission resulting from the substrate transformation [3]	secretion in connection with bacterial expression [4]	temperature optimum for the luciferase activity ([2]; listed as Lu1 64) [°C]
Firefly luciferase: Firefly luciferase used as a positive control for nonsecreted luciferase [reference compound]	not secreted	–	–	–	–
B1	secretory luciferases; also recorded: secreted	27 °C and 22 °C	about 490 nm	No secretion	–
B2	secretory luciferases; also recorded: secreted	22 °C	about 490 nm	No secretion	27
B3	secretory luciferases; also recorded: secreted	≤ 4 °C	about 490 nm	No secretion	–
